The whole screen tested about 350,000 compounds, of which about 220 (0.063%) were called active. Inconclusive means that the source gave no clear call. Such entries were picked first, then a sample of the others. The call rests on the fitted dose curve; in most records, active means well fitted activation curve with a large enough effect; inconclusive means small, poorly fitted or top-dose-only effect; inactive means no such curve, though single readings can be large or run the other way. Potencies of inconclusive entries are doubtful fits and often do not repeat.
Experiment: qHTS for Activators of Integrin-Mediated Alleviation for Muscular Dystrophy; further: nearly all actives have a fitted effect of over 60% in size;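 on activation: 100% = response of the positive control SU9516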
Conditions: alpha7betagal myoblasts, beta-gal FDG fluorescence, 48 h; activation: at 38.3 µM (top of the series)
Method in brief: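 alpha7betagal+/- myoblasts (passage 13, 250/well) treated 48 h at 37C with compounds at 1:260 dilution of DMSO stock. Lysed, then beta-galactosidase activity read as FDG fluorescence (ex 480/em 540) after 30 min, with pre-read for autofluorescence.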
With `Cc1ccccc1NC(=O)C(C)N1C(=O)c2ccccc2C1=O` (configuration not stated) the Potency was inconclusive: 2.51 µM [activator, partial curve, poor fit]. For `NC(=O)C1CC(=O)N(c2ccc(OCC(=O)Nc3ccc(Cl)cc3)cc2)C1` (configuration not stated), the Potency was inconclusive: 0.891 µM [activator, full curve, poor fit]. In the case of `CC(=O)Nc1nc(-c2ccccc2)cc(-c2ccco2)c1C#N`, the Potency is reported as inconclusive: 3.16 µM [activator, single point]. For `CCCCc1cc(=O)oc2cc(OC3CCCCC3=O)ccc12` (configuration not stated), the Potency was inconclusive: 5.01 µM [activator, single point]. For `CCC1(c2ccccc2)NC(=S)N(c2ccc(C)cc2)N1` (configuration not stated), the “activation” value was inactive: 17.6%. With `Cc1c(OCC(=O)NCCCN2CCOCC2)ccc2c3c(c(=O)oc12)CCC3` the Potency was inconclusive: 3.55 µM [activator, single point]. With `CC(Sc1ccc2ccccc2n1)C(=O)O` (configuration not stated) the “activation” value was inactive: -14.2%. For `COc1ccc(Oc2cc(F)nc(N)n2)cc1`, the activation was inactive: -3.78% [at 7.66 µM]. For `COc1cccc(-c2nc(NCc3ccccc3)c3ccccc3n2)c1O`, the activation was inconclusive: 18.1% [activator]. With `COc1ccc(CNCCCSc2ncccn2)cc1OC` the Potency was inconclusive: 22.4 µM [activator, single point]. In the case of `CN(CCC#N)C(=O)c1cc2c(Cl)nc3ccccc3c2s1`, the Potency is reported as inconclusive: 10 µM [activator, single point]. In the case of `COC(=O)C1C(O)C(C)C(O)C(C)(O)/C=C\C=C(/C)C(=O)Nc2c(C)c(OC(C)=O)c3c(c2O)C(=O)C(C)=C2OCOC(=C23)/C(C)=C/C(C)(O)C(O)C(C)C1O` (configuration not stated), the Potency is reported as inconclusive: 10 µM [activator, single point]. In the case of `Cc1cc(C)n(-c2nc3c(c(=O)n(C)c(=O)n3C)n2Cc2cccc(Br)c2)n1`, the Potency is reported as inconclusive: 0.501 µM [activator, full curve, poor fit]. In the case of `COCc1cc(C)n(CC(=O)NCC2CCCO2)c(=O)c1C#N` (configuration not stated), the Potency is reported as inconclusive: 5.62 µM [activator, partial curve, poor fit]. For `COc1ccc(-c2cn3ccccc3n2)cc1`, the Potency was inconclusive: 20 µM [activator, single point]. For `O=C1Cc2c([nH]c3ccc(Br)cc23)-c2ccccc2N1`, the “activation” value was inactive: 14.2%. In the case of `CCn1cc(C(=O)N[C@@H](CCSC)C(=O)NCCCN2CCOCC2)c(=O)c2cc3c(cc21)OCO3`, the “activation” value is reported as inactive: 6.82%. In the case of `Cc1c(Cl)cccc1NC(=O)C(=O)NNC(=O)c1ccccc1F`, the “activation” value is reported as inactive: 0%. With `Cc1ccc2c(CC(=O)NC3CCCc4ccccc43)coc2c1` (configuration not stated) the Potency was inconclusive: 7.94 µM [activator, partial curve, poor fit]. In the case of `Cc1c(C=O)c(=O)n(-c2ccccc2)n1-c1ccccc1`, the “activation” value is reported as inactive: -0.17%. In the case of `CCOc1ccc(-c2nc[nH]c2[N+](=O)[O-])cc1`, the Potency is reported as inconclusive: 11.2 µM [activator, partial curve, poor fit]. With `OCC1(Cc2ccccc2F)CCCN(CCc2ccccc2)C1` (configuration not stated) the “activation” value was inactive: -31.3%. For `S=c1[nH]nc(C2(c3ccccc3)CCCC2)o1`, the Potency was inconclusive: 2.24 µM [activator, partial curve, poor fit]. In the case of `CSCCC1NC(=S)N(Cc2ccccc2)C1=O` (configuration not stated), the Potency is reported as inconclusive: 3.16 µM [activator, single point]. For `CCN1CC2([N+](=O)[O-])CC=C(OC)C([N+](=O)[O-])(C1)C2` (configuration not stated), the Potency was inconclusive: 0.794 µM [activator, single point]. For `Cc1cccc(C(=O)NNC(=O)c2ccccc2O)c1`, the “activation” value was inactive: -17.2%. With `Cc1cc(NC(=O)Nc2cccc(Cl)c2)n(-c2ccccn2)n1` the Potency was inconclusive: 5.01 µM [activator, single point]. For `Cc1ccccc1C(=O)N(Cc1cccs1)C1CCS(=O)(=O)C1` (configuration not stated), the Potency was inconclusive: 1.12 µM [activator, full curve, poor fit]. With `CCCCN1CCc2[nH]c(=S)[nH]c(=O)c2C1` the “activation” value was inactive: 11.8%. For `CCCCCNc1nc2sc3c(c2c(=O)n1-c1cccc(Cl)c1)CCN(C)C3`, the “activation” value was inactive: -11%. With `CN(C(=O)COC(=O)CNC(=O)c1sc2ccccc2c1Cl)C1CCS(=O)(=O)C1` (configuration not stated) the Potency was inconclusive: 0.355 µM [activator, full curve, poor fit]. With `CC1CCC(NC(=O)CN2C(=O)c3cccnc3Oc3ccc(Cl)cc32)CC1` (configuration not stated) the Potency was inconclusive: 7.94 µM [activator, single point]. With `CCC(C)(C)NC(=S)Nc1ccccc1C` the Potency was inconclusive: 5.01 µM [activator, single point]. In the case of `O=C(Nc1cccc(F)c1)c1coc(=O)c(Br)c1`, the Potency is reported as inconclusive: 2.82 µM [activator, single point]. In the case of `O=C(CSc1nnc(SCc2ccc(Cl)cc2)s1)N/N=C/c1c[nH]c2ccccc12`, the “activation” value is reported as inactive: -37.1%. In the case of `Cc1ccc2nsnc2c1NS(=O)(=O)c1c(C)ccc2nsnc12`, the “activation” value is reported as inactive: -7.53%. For `COc1ccccc1CCNC(=O)NC1CCCCC1`, the Potency was inconclusive: 5.01 µM [activator, single point]. With `COc1ccc(NC(=O)C2Cc3ccccc3CN2C(=O)c2ccco2)cc1` (configuration not stated) the Potency was inconclusive: 28.2 µM [activator, single point]. With `CCN1C(=O)[C@H]2[C@@H](c3ccc(C(F)(F)F)cc3)N[C@]3(CCCN(Cc4ccc(Br)cc4)C3=O)[C@H]2C1=O` the “activation” value was inactive: -6.9%. In the case of `Cc1ccc(C)c(C(=O)CSc2nc3ccccc3c(=O)[nH]2)c1`, the Potency is reported as inconclusive: 3.55 µM [activator, single point]. In the case of `CN(C)N=Nc1ccc(S(=O)(=O)/N=C(\O)c2ccccc2)cc1`, the Potency is reported as inconclusive: 14.1 µM [activator, single point]. With `O=C(COC(=O)c1cc(S(=O)(=O)N2CCCC2)ccc1O)Nc1ccc(F)cc1F` the Potency was inconclusive: 5.01 µM [activator, single point]. For `COc1ccc(OC)c(Nc2ccc(Nc3cc(OC)ccc3OC)nn2)c1`, the “activation” value was inactive: -26.4%. In the case of `CCCc1cc(C(=O)Nc2ccc(OC)cc2[N+](=O)[O-])cs1`, the Potency is reported as inconclusive: 2.51 µM [activator, single point]. With `CC1CCN(C(=O)Nc2ccc3nsnc3c2)CC1` the activation was inconclusive: -2.72% [activator]. In the case of `Cn1c(CNC(=O)c2ccco2)nnc1SCC(=O)c1ccc(Br)cc1`, the Potency is reported as inconclusive: 5.62 µM [activator, partial curve, poor fit]. In the case of `COCCn1c(=N)c(C(=O)NCc2ccco2)cc2c(=O)n3ccccc3nc21`, the “activation” value is reported as inactive: -13.1%. In the case of `CC(C)CN(C(=O)CCNC(=O)c1ccccc1Cl)C1CCS(=O)(=O)C1` (configuration not stated), the Potency is reported as inconclusive: 5.01 µM [activator, single point]. With `N/C(=N\OC(=O)c1cccc(C(F)(F)F)c1)c1cnccn1` the Potency was inconclusive: 2.24 µM [activator, full curve, poor fit]. For `Cc1cccc(-n2nnnc2SCn2nnc3ccccc3c2=O)c1`, the “activation” value was inactive: -33.6%. In the case of `COc1cc(-c2cc(C(=O)Nc3ccc(C)c(S(=O)(=O)N4CCOCC4)c3)c3ccccc3n2)cc(OC)c1OC`, the “activation” value is reported as inactive: -6.29%. In the case of `Cc1ccc2c(C)nc(N/C(N)=N/S(=O)(=O)c3ccc([N+](=O)[O-])cc3)nc2c1`, the Potency is reported as inconclusive: 28.2 µM [activator, partial curve, poor fit]. In the case of `NC(=O)c1ccccc1N=Cc1cccnc1`, the “activation” value is reported as inactive: -12%. For `C(=N\Nc1nncc2ccccc12)/c1ccccc1`, the “activation” value was inactive: 4.8%. For `Cc1cc(=O)n2[nH]c(SCc3c(F)cccc3Cl)nc2n1`, the Potency was inconclusive: 2.51 µM [activator, full curve, poor fit]. In the case of `CCOc1ccc(NC(=O)CN2CCN(CC(=O)Nc3ccc4c(c3)OCCO4)CC2)cc1`, the Potency is reported as inconclusive: 4.47 µM [activator, full curve, poor fit]. With `COc1ccc(NC(=S)N2CCN(S(=O)(=O)c3ccc(F)cc3)CC2)cc1` the “activation” value was inactive: -23.3%. For `COc1cccc(C(=O)Nc2sc3c(c2C(=O)O)CCCC3)c1`, the Potency was inconclusive: 28.2 µM [activator, single point]. With `Cc1ccc(C)c(C(=O)COC(=O)c2ccccc2N2C(=O)C3C4CCC(C4)C3C2=O)c1` (configuration not stated) the “activation” value was inactive: -57.2%. In the case of `Cc1[nH]c(=O)[nH]c(=O)c1/C=N/NC(=O)CCNC(=O)OC(C)(C)C`, the Potency is reported as inconclusive: 3.16 µM [activator, single point]. For `Nc1cccc(-c2nc3ccc(C(=O)c4ccccc4)cc3[nH]2)c1`, the “activation” value was inactive: 0%. For `CCCn1c(-c2ccc[nH]c2=O)nc2cc(C)c(C)cc21`, the “activation” value was inactive: -4.14%. In the case of `O=C(N/N=C/c1ccccc1O)c1cc[n+]([O-])cc1`, the Potency is reported as inconclusive: 5.01 µM [activator, single point]. For `CC(=O)N1CCN(c2ccccc2NC(=O)Cc2ccc(Cl)cc2)CC1`, the Potency was inconclusive: 3.98 µM [activator, single point]. For `CC(=O)C1=C(O)C(=O)N(Cc2ccccc2)C1c1ccc(F)cc1` (configuration not stated), the Potency was inconclusive: 5.01 µM [activator, single point]. With `Cc1ccc(S(=O)(=O)N(C)C)cc1NC(=O)c1cncc(Br)c1` the “activation” value was inactive: 9.85%. With `O=C(NCCN1CCCCC1)c1ccc(F)cc1Cl` the Potency was inconclusive: 2.82 µM [activator, single point]. In the case of `COc1ccc(OC)c(C2=C/C(=C/c3ccccn3)C(=O)O2)c1`, the Potency is reported as inconclusive: 5.01 µM [activator, single point]. For `c1ccc(Nc2cc(-c3ccccc3)nc3ncnn23)cc1`, the “activation” value was inactive: -14.5%. For `COC(=O)c1sc(N)c(C(=O)OC)c1Cn1ncc(Cl)c(Cl)c1=O`, the “activation” value was inactive: -55.5%. In the case of `Cc1cc(C)c(C)c(S(=O)(=O)NCC(=O)Nc2ccccc2F)c1C`, the Potency is reported as inconclusive: 12.6 µM [activator, single point]. With `Cc1nn(CC(=O)NCCCN2CCC(Cc3ccccc3)CC2)c(=O)c2cc(-c3ccccc3)nn12` the “activation” value was inactive: -13.9%.

— PubChem BioAssay AID624291 (National Center for Advancing Translational Sciences (NCATS), 2012)
Potency means the concentration at half of the fitted maximal effect.
